± gives the uncertainty stated by the source. Many of these values have a large error.
Test: self-splicing fitness, log relative to wild type (ln ratio); higher = more splicing; Tetrahymena group I intron in knt gene, E. coli kanamycin selection, DiMSum; sequences stand for … in CUCUCU…GGAGGGAAAAGUUAUCAGGCAUGCACCUGGUAGCUAGUCUUUAAACCAAUAGAUUGCAUCGGUUUAAAAGGCAAGACCGUCAAAUUGCGGGAAAGGGGUCAACAGCCGUUCAGUACCAAGUCUCAGGGGAAACUUUGAGAUGGCCUUGCAAAGGGUAUGGUAAUAAGCUGACGGACAUGGUCCUAACCACGCAGCCAAGUCCUAAGUCAACAGAUCUUCUGUUGAUAUGGAUGCAGUUCACAGACUAAAUGUCGGUCGGGGAAGAUGUAUUCUUCUCAUAAGAUAUAGUCGGACCUCUCCUUAAUGGGAGCUAGCGGAUGAAGUGAUGCAACACUGGAGCCGCUGGGAACUAAUUUGUAUGCGAAAGUAUAUUGAUUAGUUUUGGAGUACUCGUGGUCG
How it was run: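 Pooled colonies went to amplicon sequencing on an Illumina HiSeq 2500 after six replicate transformations. The plates were LB agar with 100 μg/mL carbenicillin, 50 μM IPTG and 0.2% rhamnose, with or without 25 μg/mL kanamycin, incubated overnight at 37°C or 30°C. The E. coli BL21(DE3) library had all eight P1ex-region intron nucleotides randomised, the intron placed in the knt kanamycin-resistance gene on pET-22b(+). DiMSum fitness is the error-weighted combination of replicate fold changes, kanamycin against none, normalised to wild type.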

Sequence | self-splicing fitness (ln) (30 °C) | self-splicing fitness (ln) (37 °C)
AAUUAGCAAUAUUACGGACC | -2.03 ± 0.51 | 
UAGCAGCAAUAUUACGCUCC |  | -0.882 ± 0.6
UAAGAGCAAUAUUACGGGGA | -3.9 ± 1 | -2.45 ± 0.54
AGUCAGCAAUAUUACGGUGA | -1.87 ± 0.12 | -0.192 ± 0.096
AGAUAGCAAUAUUACGUUGC | -4.33 ± 1 | -2.24 ± 0.78
GCCGAGCAAUAUUACGUUUG | -3.75 ± 0.2 | -1.54 ± 0.19
UGAUAGCAAUAUUACGGGCC |  | -2.18 ± 0.52
GAUGAGCAAUAUUACGCCAC | -3.54 ± 0.52 | -2.56 ± 0.76
AUUUAGCAAUAUUACGGGUC | -3.57 ± 1 | 
GGCUAGCAAUAUUACGAUAG | -4.13 ± 0.59 | 
UUGAAGCAAUAUUACGCCCC | -1.27 ± 1.4 | 0.015 ± 0.59
GAAUAGCAAUAUUACGCCUC | -1.36 ± 0.84 | -0.693 ± 0.82
UCCUAGCAAUAUUACGAUUC | -4.12 ± 0.73 | 
GCGGAGCAAUAUUACGGCCU | -0.86 ± 1.4 | 
GCUGAGCAAUAUUACGCUUA |  | -2.42 ± 0.62
CUUGAGCAAUAUUACGUAAA | -4.89 ± 1 | 
GUGGAGCAAUAUUACGCCCA | -0.828 ± 0.82 | -2.48 ± 1.1
UGCUAGCAAUAUUACGUGCC | -0.755 ± 0.73 | 
GUCGAGCAAUAUUACGCUUG | -4 ± 1 | 
GGUAAGCAAUAUUACGAAGA | -2.94 ± 0.86 | -0.758 ± 0.53
AACGAGCAAUAUUACGGUCC | -5.22 ± 1 | 
UCACAGCAAUAUUACGUGUA | -2.2 ± 0.089 | -1.09 ± 0.088
GUUGAGCAAUAUUACGAUCG |  | -1.74 ± 0.68
GGGGAGCAAUAUUACGAUCU | -1.4 ± 1.2 | -0.267 ± 0.54
UGAGAGCAAUAUUACGGUUU |  | -3.27 ± 0.74
AUCGAGCAAUAUUACGCCGC | -1.96 ± 0.51 | 
UAAGAGCAAUAUUACGCCUC | -2.02 ± 1.2 | -2.11 ± 0.56

Sequence | self-splicing fitness (ln) (30 °C) | self-splicing fitness (ln) (37 °C)
AUUAAGCAAUAUUACGCCGC | -3.43 ± 1 | 
GUCUAGCAAUAUUACGAGGA |  | -2.3 ± 0.78
CUUUAGCAAUAUUACGUAAA | -5.09 ± 1 | 
CAAUAGCAAUAUUACGGAUA | -3.03 ± 0.48 | -2.77 ± 0.35
GAGCAGCAAUAUUACGCUCU | -3.46 ± 0.28 | -3.34 ± 0.6
CUGGAGCAAUAUUACGAGUC |  | -1.85 ± 0.67
GGUUAGCAAUAUUACGCCAG |  | -0.778 ± 1
CGCAAGCAAUAUUACGCUAC |  | -2.82 ± 0.48
CGAUAGCAAUAUUACGCUAA | -4.17 ± 0.52 | 
AAAGAGCAAUAUUACGGUUC | -3.25 ± 0.52 | 
CCCUAGCAAUAUUACGCGCU | -3.39 ± 0.74 | 
AAAUAGCAAUAUUACGCGGC | -4 ± 0.59 | 
GACUAGCAAUAUUACGCAAA | -1.49 ± 0.15 | -1.88 ± 0.23
GUCUAGCAAUAUUACGCAAG | -3.26 ± 0.68 | 
CACAAGCAAUAUUACGAAGU | -3.68 ± 0.16 | -1.43 ± 0.12
UCGGAGCAAUAUUACGAUAA | -2.49 ± 0.57 | -1.78 ± 0.82
GCUGAGCAAUAUUACGUUGG | -2.52 ± 0.26 | -1.9 ± 0.28
GUUCAGCAAUAUUACGAGCA | -4.17 ± 1.1 | 
CUAUAGCAAUAUUACGGAUA | -5.05 ± 1 | 
GCGAAGCAAUAUUACGAGGC | -4.45 ± 1 | 
GUCUAGCAAUAUUACGCCAG |  | -2.57 ± 1.1
AGGGAGCAAUAUUACGGUAU | -0.572 ± 0.76 | 
UAAGAGCAAUAUUACGCACA | -2.33 ± 0.87 | 
GCCGAGCAAUAUUACGAAAA | -1.52 ± 0.65 | 
AACGAGCAAUAUUACGAUUC | -3.31 ± 1 | 
UUGCAGCAAUAUUACGAUAU | -4.06 ± 0.32 | -1.78 ± 0.24
GGGGAGCAAUAUUACGCCAU | -4.2 ± 0.52 | 

Some of the entries so far, field by field.
GAGCAGCAAUAUUACGCUCU
  self-splicing fitness (ln) (30 °C): -3.46 ± 0.28; self-splicing fitness (ln) (37 °C): -3.34 ± 0.6
CUGGAGCAAUAUUACGAGUC
  self-splicing fitness (ln) (37 °C): -1.85 ± 0.67
CCCUAGCAAUAUUACGCGCU
  self-splicing fitness (ln) (30 °C): -3.39 ± 0.74

Source: the supplement of paper PMC7877785
